In patent publication US20110065723A1, “COMPOSITIONS OF N-BENZYL-3-(4-CHLOROPHENYL)-2-[METHYL-[2-OXO-2-(3,4,5-TRIMETHOXYPHENYL)ACETYL]AMINO]-N-[3-(4-PYRIDYL)-1-[2-(4-PYRIDYL)ETHYL]PROPYL]PROPANAMIDE AND USES THEREOF” (priority 2009, published 2011):
For at least one compound, name, drawing or mass did not settle the structure.

Key:
[1] = system: Mycobacterium tuberculosis Erdman strain (Mtb ATCC 35801); assay: Susceptibility testing (broth microdilution MIC) with or without TIM; assay type: cell-based; conditions: TIM 10 μg/ml; MIC without vs with TIM
[2] = system: Mycobacterium tuberculosis Erdman strain in macrophages; assay: Mtb-THP-1 macrophage infection screening assay; assay type: cell-based

SMILES	potentiating effect of TIM on the activity against Mtb [1]	in vitro effect of TIM on the inhibitory activity against Mtb based on cfus [2]
CC[n+]1c(-c2ccccc2)c2cc(N)ccc2c2ccc(N)cc21 [ethidium bromide]	four-fold	
CO[C@H]1/C=C/O[C@@]2(C)Oc3c(C)c(O)c4c(O)c(c(/C=N/N5CCN(C)CC5)c(O)c4c3C2=O)NC(=O)/C(C)=C\C=C\[C@H](C)[C@H](O)[C@@H](C)[C@@H](O)[C@@H](C)[C@H](OC(C)=O)[C@@H]1C [RIF, rifampicin]		no significant in vitro effect
